Measurements taken from US11174299B2, “Peptides and compositions for prevention of cell adhesion and methods of using same” (D[…]., priority 2008, dated 2021).

Experiment: Amino acid analysis of peptide covalently immobilised on contact lenses
Conditions: average of 3 lenses

SVHSFDYDWYNV (SEQ ID NO: 28) (immobilized on Etafilcon A contact lens) [APi1775]
peptide immobilized on contact lens (lenses processed with 1.0 μM peptide): 19.94 µg | peptide immobilized on contact lens (lenses processed with 10.0 μM peptide): 23.16 µg
